Measurements reported in PubChem BioAssay AID1159578 (Peter MacCallum Cancer Centre, 2015).

- Test: 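siRNA pools altering how lymphatic endothelial cells close a scratch wound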 (primary screen)
- Cell system: human lymphatic endothelial cells
- Knock-down reagent: siRNA pool against human genes, 40 nM
- Time to read-out: 48 h after transfection
- Detection: 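Cells stained with dye and imaged after a scratch; covered wound area and nuclei counted, duplicates averaged, migration set against mock wells and turned into a robust z-score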
- Scale: migration robust z-score: higher = faster migration into the scratch; nuclei per well: higher = more cells in the well
- Call rule: 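Migration changed when robust z exceeds 2 or falls below -2 and mean nuclei number is at least 3300; otherwise not called changed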
- Calls: active = migration changed; inactive = no migration change, or too few cells
Here is an unselected part of about 18,000 deposited reagents. About 1,030 of them (5.7%) were called active. 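Inactive calls also include pools with fewer than 3300 nuclei, whose migration was not assessed.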 The raw values are shown without normalisation. Unmarked entries are inactive. Further read-outs or replicates are left out here. Reagent sequences are not shown.

EXOSC3 → migration robust z-score: 0.34; nuclei per well, duplicate mean: 6426
PPIL2 → migration robust z-score: -1.17; nuclei per well, duplicate mean: 5212
EPN1 → migration robust z-score: -0.52; nuclei per well, duplicate mean: 5699
UROC1 → migration robust z-score: 1.2; nuclei per well, duplicate mean: 5488
DEFB107A → migration robust z-score: -1.21; nuclei per well, duplicate mean: 5492
MPLKIP → migration robust z-score: -1.36; nuclei per well, duplicate mean: 5291
ALDH3A2 → migration robust z-score: 0.55; nuclei per well, duplicate mean: 5712
VIT → migration robust z-score: 0.3; nuclei per well, duplicate mean: 6522
TMEM219 → migration robust z-score: -1.6; nuclei per well, duplicate mean: 6436
NMRK2 → migration robust z-score: 1.72; nuclei per well, duplicate mean: 5837
SOX8 → migration robust z-score: 0.64; nuclei per well, duplicate mean: 4855
KRTAP10-12 → migration robust z-score: -0.06; nuclei per well, duplicate mean: 5638
ISX → migration robust z-score: 0.65; nuclei per well, duplicate mean: 6513
SPAM1 → migration robust z-score: -0.57; nuclei per well, duplicate mean: 3858
RBP3 → migration robust z-score: -0.8; nuclei per well, duplicate mean: 5360
SNCA → migration robust z-score: 1.07; nuclei per well, duplicate mean: 6472
ZRANB1 → migration robust z-score: -0.6; nuclei per well, duplicate mean: 5444
APC → migration robust z-score: -0.31; nuclei per well, duplicate mean: 5450
FOXM1 → migration robust z-score: 0; nuclei per well, duplicate mean: 5736
CYP24A1 → migration robust z-score: -0.86; nuclei per well, duplicate mean: 4222
C5orf34 → migration robust z-score: -1.36; nuclei per well, duplicate mean: 6452
